Library screening results

Chains of the proteins cited; added tags and fusions are not shown.
UniProt E9BF75, entry or part of it: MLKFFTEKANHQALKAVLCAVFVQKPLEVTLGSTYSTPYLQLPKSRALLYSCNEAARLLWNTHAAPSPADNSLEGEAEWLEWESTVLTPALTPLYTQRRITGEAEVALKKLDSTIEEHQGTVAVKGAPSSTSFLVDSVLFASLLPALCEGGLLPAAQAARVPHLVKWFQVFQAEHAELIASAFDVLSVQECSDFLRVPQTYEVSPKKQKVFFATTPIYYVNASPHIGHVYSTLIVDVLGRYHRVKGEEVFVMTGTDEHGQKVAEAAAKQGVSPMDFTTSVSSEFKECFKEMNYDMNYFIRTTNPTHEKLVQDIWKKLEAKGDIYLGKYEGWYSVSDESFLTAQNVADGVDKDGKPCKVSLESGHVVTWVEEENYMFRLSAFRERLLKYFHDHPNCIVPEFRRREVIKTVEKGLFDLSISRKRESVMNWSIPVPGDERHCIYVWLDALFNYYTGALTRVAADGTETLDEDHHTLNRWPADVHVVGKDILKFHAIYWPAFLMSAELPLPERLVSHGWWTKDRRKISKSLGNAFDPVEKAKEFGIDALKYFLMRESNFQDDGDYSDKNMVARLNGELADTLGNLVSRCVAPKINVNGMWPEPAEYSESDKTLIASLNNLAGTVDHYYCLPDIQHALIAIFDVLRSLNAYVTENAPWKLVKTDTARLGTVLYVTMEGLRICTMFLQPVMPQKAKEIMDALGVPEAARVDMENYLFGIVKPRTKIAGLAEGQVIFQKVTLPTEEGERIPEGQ

Measurements from “University of Dundee, Small-Polar-MMV Screening Library” (2021), ChEMBL document CHEMBL3988442.

All values are in %. How 0% and 100% were set is not recorded. Most values in the screen are low, and negative values occur. The compounds are a random part of those screened. A dash means the value is not listed here; it may have been measured.

LdMetRS: 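Methionyl-tRNA synthetase (putative), Leishmania donovani (UniProt E9BF75). Primary screen of methionyl-tRNA synthetase; the read-out is not stated. The test concentration is not given. Values are per cent inhibition. Of about 68,000 compounds tested this way, about 24 (0.035%) reached 50% or more in at least one test.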
Mtb heat-shock: 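Assay on Mycobacterium tuberculosis, filed only as a heat shock assay from Cornell; the read-out is not stated. The concentration is filed as 10 mM, unlikely as a test dose, so the dose is not known. Higher reads as stronger inhibition (inferred: compounds with an IC50 in retests scored well above the rest). Size under these conditions: about 69,000 compounds, about 930 of them at 50% or above in at least one test.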

SMILES	LdMetRS	Mtb heat-shock
Fc1cnc(N2CCCC3(COCCN(c4nccs4)C3)C2)nc1 (stereo not given)	8.497%	-
O=C(c1cn(-c2ccccc2Cl)nn1)N1CCN(CCO)CC1	12.36%	-32.63%
NC(=O)COc1ccc(CNCc2ccc(Cl)c(F)c2)cc1	16.71%	10.88%
CC(C)OCCC(=O)NCC(O)c1c(F)cccc1F (stereo not given)	16.57%	-11.55%
COc1cccc(CNCc2ccc(F)c(Cl)c2)c1O	15.33%	-2.602%
CC(=O)N1CCC[C@@H](NCc2cccc(F)c2)[C@@H]1c1ccc(C)s1	18.06%	-
CC(CN1CCOCC1)NC(=O)NCc1cccs1 (stereo not given)	8.488%	-18.61%
CCNc1cc2c(nn1)CCN(C(=O)c1cc(C)no1)C2	18.79%	-5.94%
NC(=O)C1CN(c2ncnc3c2Cc2ccccc2OC3)CCO1 (stereo not given)	8.04%	4.632%
COC1(CNC(=O)c2ccc3nsnc3c2)CCSC1 (stereo not given)	12.11%	-10.92%
Cc1noc(C2CCN(C(=O)c3cccs3)CC2)n1	14.64%	14.43%
NC(=O)c1cc2c(nc1-c1ccoc1)CCC2	9.045%	-7.929%
[H][C@@]12CCN(C(=O)c3cscn3)[C@]1([H])CN(C(=O)NC1CC1)C2	-	-21.65%
Cc1ccc(CN2CC3(CCN(C(=O)C4CC4)CC3)CC2C(=O)O)o1 (stereo not given)	4.8%	-10.62%
CCCn1c(N2CCCCC2)nc2c(C)nn(C)c2c1=O	5.276%	-20.57%
CCCN1CCc2nc(SCc3ccccc3)[nH]c(=O)c2C1	7.194%	4.368%
COc1cccc(N2CCN(C(=O)CO)CC2=O)c1	9.399%	3.231%
OCCN(Cc1cccnc1)c1ccc(Cl)cn1	16.62%	-29.91%
CCN(CC)Cc1ccc(C(=O)N2CCN(CC(C)O)CC2)o1 (stereo not given)	12.85%	61.39%
CC(NC(=O)N1CCC2(C1)OCCO2)c1ccc(F)cc1Cl (stereo not given)	4.01%	24.18%
CC(C)=CCS(=O)(=O)Cc1noc(CC(C)C)n1	10.68%	27.75%
O=C(c1ccc(C2CCCO2)s1)N1CCS(=O)(=O)CC1 (stereo not given)	15.58%	15.85%
O=C(NCc1cccnc1N1CCCCC1)c1ccc2c(c1)OCO2	16.1%	-30.18%
O=C(CS(=O)(=O)C1CCCC1)NC1CCc2nccn2C1 (stereo not given)	1.592%	-49.98%
N#Cc1cccnc1OC1CCN(C(=O)c2cc(C3CC3)on2)CC1	10.07%	-6.652%
CN(Cc1cscn1)C1CCCN(Cc2noc(C3CC3)n2)C1 (stereo not given)	0%	-1.768%
CCc1nc(C2CCCN2C(=O)CCCn2cncn2)no1 (stereo not given)	7.386%	-0.2934%
CCn1c(CN2CCC(O)(C(=O)OC)CC2)nc2c(F)cccc21	4.082%	-11.44%
O=C(c1cnco1)N1CCC(Cc2cnc3ccccc3c2)CC1	20.35%	30.64%
CCC(C(=O)N(C)C)N1CCC(c2nccn2Cc2cscn2)CC1 (stereo not given)	14.72%	-8.967%
[H][C@]12CC[C@]([H])(CN(C(=O)Nc3ccccc3C(C)C)C1)N(C)C2=O	-	-156%
Cc1noc(C)c1CN1CCC2(CC1)NC(=O)CC2c1ccccc1.O=C(O)C(F)(F)F (stereo not given)	-	5.51%
O=C(CCN1CCc2c(ncn2C2CC2)C1)NC1CCCC1	14.75%	6.952%
O=C1CCN(C(=O)C2(c3ccc(F)cc3)CCCCC2)CCN1	9.355%	-8.591%
O=C(N1CCOCC1)[C@@]12CCO[C@@H]1CCN(Cc1ccncc1)C2	9.836%	-
CCCS(=O)(=O)N1CCC2(CCC(=O)N(Cc3ccccc3)C2)CC1	14.78%	4.302%
COCC1Cn2nnc(-c3cnn(C)c3)c2CN1Cc1ccc(C)s1 (stereo not given)	15.24%	-
COCc1ccc(C(=O)N2CCOCC2c2ccc(C)o2)cc1 (stereo not given)	7.427%	-26.16%
CCOc1ccnc(N2CCN(C(=O)CCc3cnn(C)c3)CC2)n1	14.18%	10.3%
Cc1cc2c(=O)n3c(nc2s1)CCN(C(=O)c1sc(C)nc1C)CC3	11.65%	-14.43%
COc1ncccc1NC(=O)N1CCCC1c1cc(C)no1 (stereo not given)	14.08%	-1.512%
O=C(NCC(F)F)c1cnc(C2CCCN2)cn1 (stereo not given)	10.31%	-
O=C(CN1CCCc2cc(F)cc(F)c21)Nc1ccc(Br)cn1	14.18%	26.78%
COCCn1ccnc1C1CCN(C(=O)C(O)c2ccc(F)cc2)CC1 (stereo not given)	12.75%	-1.422%
CC(C)C[C@H](NC(=O)c1cc(-c2cccn2C)n[nH]1)C(N)=O	-0.3436%	-16.33%
COc1ccsc1C(=O)NC1CCN(c2ccc(C#N)cc2)CC1	20.32%	2.517%
CC1(C)CC1C(=O)NS(=O)(=O)Cc1cc(-c2ccccc2)no1 (stereo not given)	17.1%	11.95%